Assay results published in publication PMC10257679.
These are yes or no findings as the source states them, for the method shown. Binding seen in cells or lysates may run through a third protein. Some binding calls cover weakened binding; strength is not graded here. Where a sequence is shown, tags or fusion partners need not be part of it.

The chains behind the UniProt entries cited, without tags or fusion partners.
UniProt P97471: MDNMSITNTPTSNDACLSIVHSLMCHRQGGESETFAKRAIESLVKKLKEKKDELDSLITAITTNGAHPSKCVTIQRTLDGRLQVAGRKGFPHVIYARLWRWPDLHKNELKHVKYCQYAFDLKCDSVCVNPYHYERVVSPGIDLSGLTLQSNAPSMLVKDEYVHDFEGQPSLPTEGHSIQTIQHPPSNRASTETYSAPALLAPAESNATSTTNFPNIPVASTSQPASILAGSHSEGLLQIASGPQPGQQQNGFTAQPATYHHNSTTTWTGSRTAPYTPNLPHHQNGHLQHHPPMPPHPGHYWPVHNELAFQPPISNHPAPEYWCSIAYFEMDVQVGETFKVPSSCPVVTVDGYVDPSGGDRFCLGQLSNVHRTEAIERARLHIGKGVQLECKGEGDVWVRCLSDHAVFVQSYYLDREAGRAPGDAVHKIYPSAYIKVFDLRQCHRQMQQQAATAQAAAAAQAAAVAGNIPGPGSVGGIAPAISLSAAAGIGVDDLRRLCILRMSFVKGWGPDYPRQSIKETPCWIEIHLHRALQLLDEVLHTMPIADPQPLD

Biological target: T1, GST-SENP2^363–589 fusion protein segment (UniProt Q9HC62)
T1 sequence: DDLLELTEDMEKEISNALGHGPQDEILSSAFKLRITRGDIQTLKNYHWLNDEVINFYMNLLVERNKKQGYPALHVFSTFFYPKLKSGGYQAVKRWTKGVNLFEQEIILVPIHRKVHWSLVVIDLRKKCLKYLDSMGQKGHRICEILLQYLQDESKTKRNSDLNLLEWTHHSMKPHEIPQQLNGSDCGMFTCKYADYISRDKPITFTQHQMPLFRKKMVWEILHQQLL
Assay: pull-down; about 290 µg of pathogenic Th17 lysate (25 mM HEPES pH 7.5, 150 mM NaCl, 1 mM EDTA, 1 mM EGTA, 0.5% Triton X-100, 1% NP-40 alternative) incubated with 10 µg GST-SENP2 363-589 at 4 °C overnight, then Glutathione Sepharose 4B beads at 4 °C for 3 h; Smad4 detected by immunoblotting; control: beads alone; only the target purified

binding: binds
Substance: Smad4 (from UniProt P97471 1-551)
